Assay results: US6028053A, “Peptide inhibitors of a phosphotyrosine-binding domain containing protein” (Mount Sinai Hospital Corporation, priority 1998, dated 2000)
Entries after “also recorded” stand apart in the source; their conditions may differ. Part of at least one peptide drawing is inferred or uncertain, most often the ends. Bridge positions count the residues as written; N and C are the ends. Square brackets hold non-standard residues; d marks the D form. Peptide text beside a SMILES is read from it. pY = N[C@@H](Cc1ccc(OP(=O)(O)O)cc1)C(=O)O

Tests used:
[1] = target: T1, Shc PTB domain binding to activated NGF receptor (Homo sapiens, UniProt P29353); test: PTB binding assay: competition with activated NGF receptor in cell lysates for GST-Shc PTB, anti-P.Tyr immunoblot; conditions: for ability to compete for / bind to the Shc PTB domain: 2 μM competing phosphopeptide, lysates of NGF-stimulated cells (FIG. 5A), also SPR (FIG. 5B)
T1 construct: made in house
T1 sequence (P29353 156-339 limits assumed): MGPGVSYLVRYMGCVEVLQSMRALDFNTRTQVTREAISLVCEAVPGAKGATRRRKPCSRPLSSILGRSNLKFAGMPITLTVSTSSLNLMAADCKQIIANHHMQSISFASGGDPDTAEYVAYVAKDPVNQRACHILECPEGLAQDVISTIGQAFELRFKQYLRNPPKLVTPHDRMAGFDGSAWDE

[2] = target: T2, Shc PTB domain (GST-ShcB) binding to activated EGF-R (Homo sapiens, UniProt P29353); test: In vitro binding assay: competitive inhibition of EGF receptor binding to GST-ShcB in HER14 lysates
T2 construct: made in house
T2 sequence (P29353 156-339 limits assumed): T1 sequence (P29353 156-339 limits assumed)
Method: HER14 cells (3T3 cells expressing EGF-R) were starved in 0.5% CS media for 24 hours and stimulated with 100 ng/ml EGF for 5 min. Cells were lysed and mixed with GST, GST-ShcB or GST-R175M beads. Proteins which bound to beads were resolved on SDS-PAGE and detected by anti-phospho-Tyr antibody (4G10) or by anti-EGF-R.
The peptides listed in Table 2 were added to cell lysates at 5 μM, incubated for 30 min., and treated with GST-ShcB beads. Proteins bound to GST-ShcB were detected by anti-phospho-Tyr antibody. […] The experiment was repeated with the peptides dissolved in DMSO (FIG. 9).

[3] = system: HER14 cells; test: Proliferation of HER14 cells (3H-TdR uptake) after EGF stimulation; assay type: cell-based; conditions: for cell proliferation compared to EGF alone: peptide 2 hrs, 100 ng/ml EGF; for cell growth compared to EGF treated cells: repeat experiment, cells serum starved 24 hrs, FIG. 12
[4] = system: SupM2 cells; test: Proliferation of SupM2 cells (3H-TdR pulse); assay type: cell-based
[5] = system: MAPK (Erk-1); test: MAPK activation in NGF-stimulated PC12 cells; assay type: cell-based; conditions: 50 ng/ml NGF, FIG. 15
[6] = system: Erk-1 and Erk-2 phosphorylation; test: MAPK activation in NGF-stimulated 3T3Trk cells; assay type: cell-based; conditions: 3T3Trk cells stimulated with NGF
[7] = peptides dissolved in DMSO, 5 μM
[8] = peptide 5 μM in cell lysate, 30 min, FIG. 8

Row | Structure (SMILES) | ability to compete for / bind to the Shc PTB domain [1] | inhibition of association of Shc and EGF-R [2, 7] | cell growth compared to EGF treated cells [3] | inhibition of Erk-1 and Erk-2 phosphorylation (band shift, Western blotting) [5] | inhibition of Erk-1 and Erk-2 phosphorylation [6] | inhibition of association of Shc and EGF-R [2, 8] | other results
1 | C[C@H](NC(=O)[C@H](C)NC(=O)[C@@H](N)Cc1c[nH]cn1)C(=O)N[C@@H](CCC(=O)O)C(=O)N[C@@H](CC(N)=O)C(=O)N1CCC[C@H]1C(=O)N[C@@H](CCC(N)=O)C(=O)N[C@@H](Cc1ccc(OP(=O)(O)O)cc1)C(=O)N[C@@H](Cc1ccccc1)C(=O)N[C@@H](CO)C(=O)N[C@@H](CC(=O)O)C(=O)O [H-A-A-E-N-P-Q-P.Y-F-S-D, H-A-A-E-N-P-Q-p.Y-F-S-D] (H-HAAENPQ[pY]FSD-OH) | reduced the ability to bind to the PTB domain |  |  |  |  |  | 
2 | CC[C@H](C)[C@H](NC(=O)[C@H](C)NC(=O)[C@@H](N)Cc1c[nH]cn1)C(=O)N[C@@H](CCC(=O)O)C(=O)N[C@@H](CC(N)=O)C(=O)N1CCC[C@H]1C(=O)N[C@@H](CCC(N)=O)C(=O)N[C@@H](Cc1ccc(OP(=O)(O)O)cc1)C(=O)N[C@@H](Cc1ccccc1)C(=O)N[C@@H](CO)C(=O)N[C@@H](CC(=O)O)C(=O)O [H-A-I-E-N-P-Q-P.Y-F-S-D, His-Ala-Ile-Glu-Asn-Pro-Gln-P.Tyr-Phe-Ser-Asp] (H-HAIENPQ[pY]FSD-OH) | no effect on the ability to bind to the PTB domain |  |  |  |  |  | 
3 | CC[C@H](C)[C@H](NC(=O)[C@H](CCCCN)NC(=O)[C@@H](NC(=O)[C@H](CCC(N)=O)NC(=O)[C@@H](N)CCCNC(=N)N)[C@@H](C)CC)C(=O)N[C@@H](Cc1c[nH]c2ccccc12)C(=O)N[C@@H](Cc1ccccc1)C(=O)N[C@@H](CCC(N)=O)C(=O)N[C@@H](CC(N)=O)C(=O)N[C@@H](CCCNC(=N)N)C(=O)N[C@@H](CCCNC(=N)N)C(=O)N[C@@H](CCSC)C(=O)N[C@@H](CCCCN)C(=O)N[C@@H](Cc1c[nH]c2ccccc12)C(=O)N[C@@H](CCCCN)C(=O)N[C@@H](CCCCN)C(=O)N[C@@H](Cc1c[nH]cn1)C(=O)N[C@H](C(=O)N[C@H](C(=O)N[C@@H](CCC(=O)O)C(=O)N[C@@H](CC(N)=O)C(=O)N1CCC[C@H]1C(=O)N[C@@H](CCC(N)=O)C(=O)N[C@@H](Cc1ccc(OP(=O)(O)O)cc1)C(=O)N[C@@H](Cc1ccccc1)C(=O)N[C@@H](CO)C(=O)N[C@@H](CC(=O)O)C(=O)O)[C@@H](C)CC)[C@@H](C)CC [P-2, RQIKIWFQNRRMKWKK-HIIENPQpYFSD] (H-RQIKIWFQNRRMKWKKHIIENPQ[pY]FSD-OH) |  | strong inhibition | did not show any decrease of cell growth rate | no inhibition was detected | No specific inhibition of Erk-1 and Erk-2 phosphorylation |  | inhibition of association of Shc/EGF-R ([2]; dissolved in DMSO, 0.5 μM, FIG. 10 Panel C): did not block the protein interaction; inhibition of association of Shc/EGF-R ([2]; dissolved in Hepes buffer, 100 μM, FIG. 10 Panel B): prevented the association of Shc/EGF-R completely; inhibition of association of Shc and EGF-R ([2]; peptide dissolved in Hepes buffer, 5 μM): weak inhibition; also recorded: slight inhibition; cell proliferation compared to EGF alone ([3]; cells starved 24 hours, FIG. 11a): slightly inhibited the proliferation of cells; cell proliferation compared to EGF alone ([3]; cells starved 48 hrs, FIG. 11b): markedly prevented cell proliferation; cell proliferation ([4]; 70 nM): completely inhibited; cell growth ([4]; serial dilutions, 60 pM): suppressed the cell growth completely; cell growth ([4]; serum-free 24 hr, peptide 2 hrs, 20% FBS overnight, FIG. 14): inhibited cell growth to background level
4 | CC[C@H](C)[C@H](NC(=O)[C@@H](NC(=O)[C@@H](N)Cc1c[nH]cn1)[C@@H](C)CC)C(=O)N[C@@H](CCC(=O)O)C(=O)N[C@@H](CC(N)=O)C(=O)N1CCC[C@H]1C(=O)N[C@@H](CCC(N)=O)C(=O)N[C@@H](Cc1ccc(OP(=O)(O)O)cc1)C(=O)N[C@@H](Cc1ccccc1)C(=O)N[C@@H](CO)C(=O)N[C@@H](CC(=O)O)C(=O)O [H-I-I-E-N-P-Q-P.Y-F-S-D, His-Ile-Ile-Glu-Asn-Pro-Gln-P.Tyr-Phe-Ser-Asp] (H-HIIENPQ[pY]FSD-OH) |  |  |  |  |  | inhibited the association of Shc and EGF-R | ability to compete with NGF receptor for binding to GST-Shc PTB domain ([1]; lysates of NGF-stimulated cells, competing phosphopeptide 2 or 5 μM, FIG. 1A): competed efficiently for binding
5 | CC[C@H](C)[C@@H]1NC(=O)[C@H]([C@@H](C)CC)NC(=O)[C@@H](N)CSSC[C@@H](C(=O)O)NC(=O)[C@H](Cc2ccccc2)NC(=O)[C@H](Cc2ccc(OP(=O)(O)O)cc2)NC(=O)[C@H](CCC(N)=O)NC(=O)[C@@H]2CCCN2C(=O)[C@H](CC(N)=O)NC(=O)[C@H](CCC(=O)O)NC1=O [C-2] (H-CIIENPQ[pY]FC-OH; disulfide 1-10) |  | inhibited complex formation | inhibited cell growth roughly in a dose dependent manner | no inhibition was detected | No specific inhibition of Erk-1 and Erk-2 phosphorylation | inhibited the binding of Shc and EGF-R completely | inhibition of association of Shc and EGF-R ([2]; dose response, cyclic peptides, 5 μM, FIG. 10 Panel A): strong inhibition; cell growth ([3]; repeat with C-1 as negative control, cells starved 48 hrs, FIG. 13): did not inhibit cell growth
